The text below walks through data of PMC6345845.

These are yes or no findings as the source states them, for the method shown.

For the assay, the target named is T1, pseudo-wt PI4KB Y159A labeled with Atto488 (human) (UniProt Q9UBF8).
T1 sequence (chain, Atto488 (maleimide labelling)): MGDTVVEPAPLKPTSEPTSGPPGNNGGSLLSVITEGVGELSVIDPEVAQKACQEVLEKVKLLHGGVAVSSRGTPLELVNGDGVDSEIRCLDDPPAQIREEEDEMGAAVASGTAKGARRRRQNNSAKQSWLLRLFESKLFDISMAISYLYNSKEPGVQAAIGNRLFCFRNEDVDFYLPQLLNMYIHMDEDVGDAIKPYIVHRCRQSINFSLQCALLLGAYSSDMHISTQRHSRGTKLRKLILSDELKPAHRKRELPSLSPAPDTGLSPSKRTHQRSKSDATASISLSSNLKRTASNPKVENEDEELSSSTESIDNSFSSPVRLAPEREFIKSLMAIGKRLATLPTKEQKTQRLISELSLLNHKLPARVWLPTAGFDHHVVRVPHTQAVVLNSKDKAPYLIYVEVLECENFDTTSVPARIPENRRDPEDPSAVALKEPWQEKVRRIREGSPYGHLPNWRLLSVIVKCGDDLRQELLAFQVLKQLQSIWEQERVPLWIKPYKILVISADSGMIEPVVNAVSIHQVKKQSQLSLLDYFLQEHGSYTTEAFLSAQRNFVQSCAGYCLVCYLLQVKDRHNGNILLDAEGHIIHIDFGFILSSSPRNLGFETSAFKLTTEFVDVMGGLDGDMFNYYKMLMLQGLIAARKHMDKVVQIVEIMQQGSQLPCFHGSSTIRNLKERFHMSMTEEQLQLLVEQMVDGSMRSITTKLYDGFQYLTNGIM
In words: fluorescence cross-correlation spectroscopy (FCCS); on GUV membrane; Atto488-PI4KB attached by tethered ACBD3; mCherry-Rab11-His tethered to the membrane via His tag; proteins approximately 50 nM; both purified.

As to mCherry-Rab11-His (membrane tethered), the binding result was “no binding (tested: approximately 50 nM)”.
